We go through 34 compounds from the supplement of paper PMC8256030.

Where “and” joins values, the source holds several entries; their conditions need not be identical. Equal entries are not always repeated. This is one part of the list. This data set is noisy: repeats of one test often differ as much as different tests do.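 HEK293T cells were given each compound shortly before transfection with a reporter in which red mCherry is followed by the SARS-CoV-2 frameshift element and then GFP in the −1 frame, so GFP appears only after frameshifting.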

One assay has as its system HEK293T. Nature of the assay: percent viability (nuclei count) relative to control; higher = more viable cells. Conditions: 10 µM; 24 h.
The subject of assay [1] is SARS-CoV-2 -1 PRF reporter mCherry-FSE-GFP(-1). The experiment in a line: mCherry (red) intensity as percent of control; higher = higher upstream reporter expression. The note with it: 10 µM; 24 h; HEK293T.
For assay [2] the test system is unchanged. The experiment in a line: percent effect, decrease of GFP/mCherry ratio (-1 PRF reporter) relative to controls; higher = stronger frameshift inhibition. Conditions: 10 µM; 24 h; HEK293T.

For the compound `C[C@@H]1CC2=CC(=O)CC[C@@H]2[C@H]2CC[C@@]3(C)[C@@H](CC[C@]3(C)O)[C@@H]21` [mibolerone], the percent viability with HEK293T is 108%. Moreover, the mCherry in assay [1] amounted to 78.4%. In addition, in assay [2], the percent effect was -10.7%.
As for `CC(N)Cc1ccc2c(c1)OCO2` (configuration not stated) [tenamfetamine], the percent viability in the assay on HEK293T amounted to 242%. In assay [1], this compound displayed a mCherry of 109%. Besides, the percent effect in assay [2] is -4.83%.
The corresponding values for `C=CC[C@]1(O)CC[C@H]2[C@@H]3CCC4=CCCC[C@@H]4[C@H]3CC[C@@]21C` [Gestanin] are 207%, 105% and -0.782%.
With `CC(C)C[C@H](CN)CC(=O)O`, the percent viability in the assay on HEK293T was determined as 249%. The same compound registered a mCherry in assay [1] of 103%. In assay [2], the percent effect was determined as 2.03%.
With `CC(=O)Nc1cc([As](=O)(O)O)ccc1O` [acetarsol], the percent viability in the assay on HEK293T turned out to be 279%. In assay [1], the mCherry stood at 128%. In addition, the percent effect in assay [2] is -3.76%.
As for `O=C1CN=C(c2ccccc2)c2cc(Cl)ccc2N1CC1CC1` [prazepam], the percent viability in the assay on HEK293T came out at 40.5%. Also, the mCherry in assay [1] was determined as 71.4%. Further, the percent effect in assay [2] is -4.66%.
As for `CN(C)[C@@H]1C(=O)C(C(N)=O)=C(O)[C@@]2(O)C(=O)C3=C(O)c4c(O)ccc(Cl)c4[C@@](C)(O)[C@H]3C[C@@H]12` [Chlortetracycline], in the assay on HEK293T, the percent viability was 242%. This compound also yielded a mCherry in assay [1] of 79.6%. Also, in assay [2], the percent effect is -4.82%.
The corresponding values for `N[C@@H]1C[C@H]1c1ccccc1.N[C@H]1C[C@@H]1c1ccccc1` [tranylcypromine] are 295%, 111% and -6.14%.
Consider `CCc1cc2c(s1)-n1c(C)nnc1CN=C2c1ccccc1Cl` [etizolam], for which the percent viability with HEK293T worked out at 241%. In assay [1], this compound had a mCherry of 101%. Also, in assay [2], the percent effect is -0.677%.
`COP(=O)(OC)C(O)C(Cl)(Cl)Cl` (configuration not stated) [metrifonate]: the percent viability in the assay with HEK293T is 167%. The mCherry in assay [1] came to 100%. Moreover, in assay [2], the percent effect was -7.98%.
In the case of `CNCC(=O)c1ccc(O)c(O)c1`, the percent viability in the assay on HEK293T came to 317%. In assay [1], the mCherry amounted to 84.5%. In addition, the percent effect in assay [2] is -3.36%.
`C#CCO[C@H]1CN2CCC1CC2` [talsaclidine]: the percent viability in the assay with HEK293T amounted to 186%. The mCherry in assay [1] was 67.9%. In assay [2], the percent effect was -0.0123%.
Turning to `O=C1C[C@@H]2OCC=C3CN4CC[C@]56c7ccccc7N1[C@H]5[C@H]2[C@H]3C[C@H]46`, in the assay on HEK293T, the percent viability was determined as 183%. The mCherry in assay [1] worked out at 104%. Moreover, the percent effect in assay [2] is -11.6%.
For `CCOC(=O)C1(c2ccccc2)CCN(CCC(C#N)(c2ccccc2)c2ccccc2)CC1`, in that order: 242%, 76.9% and -2.62%.
With `C=C1C[C@@H]2[C@H](CC[C@]3(C)C(=O)CC[C@@H]23)[C@@]2(C)C=CC(=O)C=C12` [exemestane], the percent viability with HEK293T was 364% and 302%. Moreover, the mCherry in assay [1] is 89.7% and 91%. Moreover, the percent effect in assay [2] is -0.98% and -3.36%.
Take `Cc1cc(C(C#N)c2ccc(Cl)cc2)c(Cl)cc1NC(=O)c1cc(I)cc(I)c1O` (configuration not stated) [closantel]: in the assay on HEK293T, the percent viability amounted to 227%. The same compound returned a mCherry in assay [1] of 124%. The percent effect in assay [2] was -1.05%.
With `CC(=O)N(C)c1cccc(-c2ccnc3c(C(=O)c4cccs4)cnn23)c1` [indiplon], the percent viability in the assay with HEK293T amounted to 188%. For the same compound, the mCherry in assay [1] is 110%. In assay [2], the percent effect is -2.77%.
For the compound `Oc1ccc2c3c1O[C@H]1[C@@H](O)CC[C@@]4(O)[C@@H](C2)N(CC2CCC2)CC[C@]314`, the percent viability with HEK293T came to 177%. This compound came in with a mCherry in assay [1] of 110%. Moreover, in assay [2], the percent effect is -3.28%.
As to `Cc1cc(O)ccc1Cl`, the percent viability in the assay on HEK293T is 203%. Further, the mCherry in assay [1] came out at 116%. Also, in assay [2], the percent effect was -18.9%.
As for `CCC1(CC)C(=O)NC(=O)N(c2ccccc2)C1=O` [phetharbital], in the assay on HEK293T, the percent viability was 153%. This compound also registered a mCherry in assay [1] of 79%. The percent effect in assay [2] is -5.73%.
As for `CC(=O)OC1CN2CCC1CC2` (configuration not stated) [aceclidine], the percent viability with HEK293T was determined as 40.4%. In assay [1], this compound yielded a mCherry of 87.6%. Also, the percent effect in assay [2] was -1.88%.
In the case of `CCCC(C)C1(CC)C(=O)NC(=O)NC1=O` (configuration not stated) [pentobarbital], the percent viability with HEK293T stood at 60.8%. Besides, the mCherry in assay [1] is 86.2%. In addition, the percent effect in assay [2] is -3.57%.
Take `CCOC(=O)c1cncn1C(C)c1ccccc1` (configuration not stated): the percent viability with HEK293T was 360%. The compound also came in with a mCherry in assay [1] of 118%. The percent effect in assay [2] stood at 0.962%.
Consider `C=CCC1(CC(C)C)C(=O)NC(=O)NC1=O` [butalbital], for which the percent viability in the assay with HEK293T worked out at 321%. The same compound had a mCherry in assay [1] of 84.3%. Besides, the percent effect in assay [2] is -1.17%.
On to `Clc1cccc(SC2CCNCC2)n1` [anpirtoline], for which the percent viability in the assay on HEK293T came to 142%. Also, the mCherry in assay [1] was 86.6%. Also, in assay [2], the percent effect was -12.2%.
Regarding `CCCN1CCC[C@@H](c2cccc(O)c2)C1` [preclamol], the percent viability in the assay on HEK293T was 140%. The same compound yielded a mCherry in assay [1] of 94.3%. Moreover, the percent effect in assay [2] is -3.93%.
In the case of `CCN(C(C)=O)c1cccc(-c2ccnc3c(C#N)cnn23)c1` [zaleplon], the percent viability with HEK293T is 134% and 206%. In assay [1], the mCherry is 102% and 122%. Further, the percent effect in assay [2] was 0.132% and 0.448%.
As to `CCOC(=O)c1cncn1[C@H](C)c1ccccc1` [etomidate], the percent viability with HEK293T amounted to 206%. In assay [1], the mCherry came to 93.1%. Besides, the percent effect in assay [2] is -1.92%.
For `C[C@]12C=CC(=O)C=C1CC[C@@H]1[C@@H]2CC[C@@]2(C)[C@H]1CC[C@]2(C)O` [metandienone], the percent viability in the assay on HEK293T was determined as 358%. Also, the mCherry in assay [1] came out at 81%. In addition, the percent effect in assay [2] is -4.23%.
Regarding `Clc1ccc(C(OCCN2CCCCC2)c2ccccc2)cc1` (configuration not stated) [cloperastine], the percent viability with HEK293T stood at 286%. This compound registered a mCherry in assay [1] of 151%. Further, the percent effect in assay [2] was 2.58%.
The corresponding values for `NC(=O)OC[C@@H](O)c1ccccc1Cl` [carisbamate] are 409%, 64% and 0.791%.
`CCCOC(=O)[C@H]1[C@@H](OC(=O)c2ccccc2)C[C@@H]2CC[C@H]1N2C`: the percent viability in the assay with HEK293T was 76.3%. For the same compound, the mCherry in assay [1] came to 93.5%. Moreover, the percent effect in assay [2] is -2.18%.
For `CCOC(=O)Nc1ccc(NCc2ccc(F)cc2)cc1N` [retigabine], in that order: 237%, 96.5% and 3.34%.
The corresponding values for `CN(C)C1=NC(=O)C(c2ccccc2)O1` (configuration not stated) [tozalinone] are 149%, 90.6% and -7.23%.
